Source: publication PMC7950113
These are yes or no findings as the source states them, for the method shown. In cells and extracts the contact can be indirect. Here binding means that the protein was enriched with, or labelled near, the bait; the list need not be complete.

Sequences of proteins named here, by UniProt entry; tags and fusion partners are left off. A change or cut given only in a name is not applied to a line headed by its entry. A line that says so, or that is headed by a name, gives the form on record, which may keep a tag or linker. Residues count along the entry.
FLAG-tagged thyroglobulin, WT (P01266, residues 20-2768): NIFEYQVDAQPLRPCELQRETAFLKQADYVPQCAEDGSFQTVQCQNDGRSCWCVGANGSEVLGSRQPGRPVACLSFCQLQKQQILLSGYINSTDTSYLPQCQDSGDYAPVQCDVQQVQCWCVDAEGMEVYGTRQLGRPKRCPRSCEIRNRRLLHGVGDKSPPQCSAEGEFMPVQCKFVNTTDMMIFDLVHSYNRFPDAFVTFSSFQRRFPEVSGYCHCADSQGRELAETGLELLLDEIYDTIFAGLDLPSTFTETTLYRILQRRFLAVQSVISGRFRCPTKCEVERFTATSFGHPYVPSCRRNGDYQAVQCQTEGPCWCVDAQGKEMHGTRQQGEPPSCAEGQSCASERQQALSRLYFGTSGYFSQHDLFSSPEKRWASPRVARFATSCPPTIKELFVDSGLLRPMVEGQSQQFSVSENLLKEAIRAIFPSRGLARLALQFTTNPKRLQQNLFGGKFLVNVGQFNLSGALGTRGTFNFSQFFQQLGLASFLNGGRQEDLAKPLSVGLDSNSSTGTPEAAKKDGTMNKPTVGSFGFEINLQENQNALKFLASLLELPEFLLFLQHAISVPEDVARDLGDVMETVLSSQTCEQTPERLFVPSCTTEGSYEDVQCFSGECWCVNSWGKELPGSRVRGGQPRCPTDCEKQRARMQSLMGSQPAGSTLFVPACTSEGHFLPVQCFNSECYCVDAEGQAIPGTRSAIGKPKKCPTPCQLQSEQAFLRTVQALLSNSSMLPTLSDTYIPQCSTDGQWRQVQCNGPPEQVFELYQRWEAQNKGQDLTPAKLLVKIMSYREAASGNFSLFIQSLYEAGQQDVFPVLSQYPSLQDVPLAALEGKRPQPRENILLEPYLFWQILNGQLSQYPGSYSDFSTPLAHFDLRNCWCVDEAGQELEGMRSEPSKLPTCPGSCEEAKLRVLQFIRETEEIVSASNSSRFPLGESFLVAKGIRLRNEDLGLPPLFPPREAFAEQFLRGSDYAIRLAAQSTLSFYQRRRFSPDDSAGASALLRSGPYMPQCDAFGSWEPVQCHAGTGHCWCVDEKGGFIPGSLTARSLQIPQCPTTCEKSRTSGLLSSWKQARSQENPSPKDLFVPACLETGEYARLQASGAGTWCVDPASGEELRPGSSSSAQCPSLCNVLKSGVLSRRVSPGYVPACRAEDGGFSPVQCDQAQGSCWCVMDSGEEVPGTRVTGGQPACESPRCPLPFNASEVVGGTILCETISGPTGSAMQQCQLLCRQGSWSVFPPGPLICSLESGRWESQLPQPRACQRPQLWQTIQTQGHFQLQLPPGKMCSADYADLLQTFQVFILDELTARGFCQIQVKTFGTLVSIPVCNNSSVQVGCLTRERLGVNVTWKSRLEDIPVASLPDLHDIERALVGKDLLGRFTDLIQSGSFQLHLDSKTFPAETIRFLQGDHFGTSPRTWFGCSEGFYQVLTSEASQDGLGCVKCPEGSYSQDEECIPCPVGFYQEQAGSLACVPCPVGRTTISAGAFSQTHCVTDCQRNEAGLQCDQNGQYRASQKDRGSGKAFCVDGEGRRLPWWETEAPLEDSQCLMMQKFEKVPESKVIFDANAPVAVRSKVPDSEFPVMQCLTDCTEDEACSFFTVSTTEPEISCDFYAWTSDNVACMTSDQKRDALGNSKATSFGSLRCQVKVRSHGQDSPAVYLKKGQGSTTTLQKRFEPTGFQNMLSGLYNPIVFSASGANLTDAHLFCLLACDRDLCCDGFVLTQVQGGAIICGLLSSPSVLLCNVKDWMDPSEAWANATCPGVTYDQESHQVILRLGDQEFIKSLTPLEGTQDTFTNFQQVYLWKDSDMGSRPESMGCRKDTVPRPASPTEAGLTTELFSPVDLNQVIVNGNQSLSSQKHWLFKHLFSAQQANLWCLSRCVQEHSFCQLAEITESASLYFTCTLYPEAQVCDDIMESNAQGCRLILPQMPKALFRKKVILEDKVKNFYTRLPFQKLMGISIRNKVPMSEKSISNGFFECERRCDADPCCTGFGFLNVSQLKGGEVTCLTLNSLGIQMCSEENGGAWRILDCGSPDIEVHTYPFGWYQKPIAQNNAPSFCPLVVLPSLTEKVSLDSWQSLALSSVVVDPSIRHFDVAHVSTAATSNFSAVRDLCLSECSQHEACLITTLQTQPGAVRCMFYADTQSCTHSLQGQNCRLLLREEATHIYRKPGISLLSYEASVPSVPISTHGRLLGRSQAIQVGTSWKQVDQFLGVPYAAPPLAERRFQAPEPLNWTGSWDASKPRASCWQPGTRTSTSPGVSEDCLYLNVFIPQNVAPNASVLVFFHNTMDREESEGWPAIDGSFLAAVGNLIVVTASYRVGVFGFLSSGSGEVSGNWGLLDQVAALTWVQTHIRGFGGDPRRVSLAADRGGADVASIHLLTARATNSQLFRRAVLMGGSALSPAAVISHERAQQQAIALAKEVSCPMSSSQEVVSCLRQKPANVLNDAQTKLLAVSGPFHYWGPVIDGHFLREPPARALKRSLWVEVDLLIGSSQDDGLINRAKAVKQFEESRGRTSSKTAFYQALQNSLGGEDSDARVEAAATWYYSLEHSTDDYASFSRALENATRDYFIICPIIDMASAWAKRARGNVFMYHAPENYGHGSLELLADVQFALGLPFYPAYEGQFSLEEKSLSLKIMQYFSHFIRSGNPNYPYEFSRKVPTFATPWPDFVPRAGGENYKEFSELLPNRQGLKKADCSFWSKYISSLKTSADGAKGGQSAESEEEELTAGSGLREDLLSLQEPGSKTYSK
FLAG-tagged thyroglobulin A2234D (P01266, form named): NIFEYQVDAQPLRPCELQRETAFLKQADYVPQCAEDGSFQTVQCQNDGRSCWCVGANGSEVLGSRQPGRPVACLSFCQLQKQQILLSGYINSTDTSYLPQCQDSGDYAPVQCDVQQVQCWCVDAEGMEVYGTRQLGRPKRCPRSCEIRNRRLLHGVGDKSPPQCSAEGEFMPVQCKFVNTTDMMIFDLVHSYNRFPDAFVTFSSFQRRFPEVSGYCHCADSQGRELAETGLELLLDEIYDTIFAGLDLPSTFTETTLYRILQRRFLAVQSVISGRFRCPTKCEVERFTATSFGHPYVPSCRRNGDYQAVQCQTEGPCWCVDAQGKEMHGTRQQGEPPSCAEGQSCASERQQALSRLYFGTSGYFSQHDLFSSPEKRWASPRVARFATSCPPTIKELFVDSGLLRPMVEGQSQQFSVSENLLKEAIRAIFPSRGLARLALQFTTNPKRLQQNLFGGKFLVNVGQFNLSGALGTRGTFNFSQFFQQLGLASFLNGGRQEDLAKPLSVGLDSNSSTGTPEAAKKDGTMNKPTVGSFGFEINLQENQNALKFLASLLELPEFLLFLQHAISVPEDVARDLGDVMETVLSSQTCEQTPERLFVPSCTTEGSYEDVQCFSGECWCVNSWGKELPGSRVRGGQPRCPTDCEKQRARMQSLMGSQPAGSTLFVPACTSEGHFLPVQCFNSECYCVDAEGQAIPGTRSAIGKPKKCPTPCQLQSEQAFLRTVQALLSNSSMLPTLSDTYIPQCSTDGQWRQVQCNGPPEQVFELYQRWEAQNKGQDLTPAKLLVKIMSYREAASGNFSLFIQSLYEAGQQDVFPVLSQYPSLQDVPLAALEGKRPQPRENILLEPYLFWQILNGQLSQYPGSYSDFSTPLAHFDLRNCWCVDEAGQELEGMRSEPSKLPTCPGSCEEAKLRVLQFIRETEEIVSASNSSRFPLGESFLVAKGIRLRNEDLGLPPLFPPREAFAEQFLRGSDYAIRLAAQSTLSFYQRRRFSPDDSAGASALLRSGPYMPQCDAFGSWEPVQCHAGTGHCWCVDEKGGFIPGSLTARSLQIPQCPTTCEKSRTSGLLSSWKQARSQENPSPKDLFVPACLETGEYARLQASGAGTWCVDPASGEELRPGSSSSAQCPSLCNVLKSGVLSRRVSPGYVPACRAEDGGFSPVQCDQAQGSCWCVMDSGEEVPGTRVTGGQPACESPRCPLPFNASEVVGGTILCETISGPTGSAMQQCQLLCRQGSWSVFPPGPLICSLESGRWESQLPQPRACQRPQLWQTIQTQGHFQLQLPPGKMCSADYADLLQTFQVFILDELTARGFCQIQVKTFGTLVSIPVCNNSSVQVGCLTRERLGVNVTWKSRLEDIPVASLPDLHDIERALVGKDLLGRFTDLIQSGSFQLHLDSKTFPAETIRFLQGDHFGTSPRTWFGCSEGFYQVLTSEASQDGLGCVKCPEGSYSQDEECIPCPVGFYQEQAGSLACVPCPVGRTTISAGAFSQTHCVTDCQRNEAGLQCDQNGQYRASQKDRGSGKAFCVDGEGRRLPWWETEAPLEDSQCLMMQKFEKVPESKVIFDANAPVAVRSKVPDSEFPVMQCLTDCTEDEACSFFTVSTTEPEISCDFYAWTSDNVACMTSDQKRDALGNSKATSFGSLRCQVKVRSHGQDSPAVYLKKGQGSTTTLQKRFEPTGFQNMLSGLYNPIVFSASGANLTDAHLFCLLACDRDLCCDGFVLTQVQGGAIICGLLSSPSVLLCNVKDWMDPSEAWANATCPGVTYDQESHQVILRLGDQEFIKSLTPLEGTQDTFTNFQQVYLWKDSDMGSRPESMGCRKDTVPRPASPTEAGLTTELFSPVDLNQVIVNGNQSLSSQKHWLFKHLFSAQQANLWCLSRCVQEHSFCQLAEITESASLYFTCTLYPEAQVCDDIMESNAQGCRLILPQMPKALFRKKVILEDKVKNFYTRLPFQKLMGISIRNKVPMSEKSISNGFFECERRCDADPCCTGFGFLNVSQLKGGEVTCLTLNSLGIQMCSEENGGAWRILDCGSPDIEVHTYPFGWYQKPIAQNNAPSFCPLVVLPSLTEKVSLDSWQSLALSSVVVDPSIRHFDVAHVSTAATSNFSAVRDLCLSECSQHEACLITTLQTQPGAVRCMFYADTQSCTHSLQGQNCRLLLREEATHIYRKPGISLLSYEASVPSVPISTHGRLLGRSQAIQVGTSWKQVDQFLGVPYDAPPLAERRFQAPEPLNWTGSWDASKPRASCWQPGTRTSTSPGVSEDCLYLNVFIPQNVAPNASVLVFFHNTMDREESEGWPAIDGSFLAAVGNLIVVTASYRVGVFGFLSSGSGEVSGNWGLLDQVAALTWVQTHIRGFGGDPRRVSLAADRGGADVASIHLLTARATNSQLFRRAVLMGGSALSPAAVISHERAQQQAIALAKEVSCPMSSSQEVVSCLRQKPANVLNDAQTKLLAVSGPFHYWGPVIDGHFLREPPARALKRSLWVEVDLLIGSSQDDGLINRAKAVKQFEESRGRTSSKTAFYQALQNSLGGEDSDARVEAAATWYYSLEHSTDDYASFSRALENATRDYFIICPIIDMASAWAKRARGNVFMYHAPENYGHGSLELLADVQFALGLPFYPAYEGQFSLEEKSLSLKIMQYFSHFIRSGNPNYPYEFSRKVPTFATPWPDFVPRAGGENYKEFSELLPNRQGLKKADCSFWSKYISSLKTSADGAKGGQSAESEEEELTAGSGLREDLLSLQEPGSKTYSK

Tests used:
Assay in all cases: affinity purification with mass spectrometry; FLAG-Tg variants transiently expressed in HEK293 cells; cells cross-linked with 0.5 mM DSP, RIPA lysate, M2 anti-flag agarose or G1 Anti-DYKDDDDK resin overnight at 4 °C, four RIPA washes; TMT sixplex LC-MS/MS against mock AP (untagged Tg, EGFP or tdTomato)
[1] = target: FLAG-tagged thyroglobulin A2234D (human) (UniProt P01266)
[2] = target: FLAG-tagged thyroglobulin C1264R (human) (UniProt P01266)
[3] = target: FLAG-tagged thyroglobulin G2341R (human) (UniProt P01266)
[4] = target: FLAG-tagged thyroglobulin L2284P (human) (UniProt P01266)
[5] = target: FLAG-tagged thyroglobulin, WT (human) (UniProt P01266)

Measured: binding

B1: RAD-dependent oxidoreductase domain containing 2 (protein, UniProt Q8IWF2 27-684)
chain: VPPRRDYCVLGAGPAGLQMAYFLQRAGRDYAVFERAPRPGSFFTRYPRHRKLISINKRYTGKANAEFNLRHDWNSLLSHDPRLLFRHYSRAYFPDARDMVRYLGDFADTLGLRVQYNTTIAHVTLDKDRQAWNGHYFILTDQKGQVHQCSVLFVATGLSVPNQVDFPGSEYAEGYESVSVDPEDFVGQNVLILGRGNSAFETAENILGVTNFIHMLSRSRVRLSWATHYVGDLRAINNGLLDTYQLKSLDGLLESDLTDLAILKDSKGKFHVTPKFFLEEANTNQSADSITLPQDDNDNFAMRVPYDRVIRCLGWNFDFSIFNKSLRLNSGNAFGKKYPLIRASYESKGSRGLFILGTASHSVDYRKSAGGFIHGFRYTVRAVHRLLEHRHHSVTWPATELPITQLTSSIVRRVNEASGLYQMFGVLADVILLKENSTAFEYLEEFPIQMLAQLETLTGRKAKHGLFVINMEYGRNFSGPDKDVFFDDRSVGHTEDAWQSNFLHPVIYYYRYLPTEQEVRFRPAHWPLPRPTAIHHIVEDFLTDWTAPIGHILPLRRFLENCLDTDLRSFYAESCFLFALTRQKLPPFCQQGYLRMQGLVSTESLWQHRVESRLLRDYAPTGRRLEDSSQQLGDQEPLGSPLAPGPLAQSVDSNKEEL
binds: [1] | [2] | [3] | [4] | [5]

B2: ER degradation enhancing alpha-mannosidase-like 3 (protein, UniProt Q9BZQ6 42-932)
chain: EPMSREEKQKLGNQVLEMFDHAYGNYMEHAYPADELMPLTCRGRVRGQEPSRGDVDDALGKFSLTLIDSLDTLVVLNKTKEFEDAVRKVLRDVNLDNDVVVSVFETNIRVLGGLLGGHSLAIMLKEKGEYMQWYNDELLQMAKQLGYKLLPAFNTTSGLPYPRINLKFGIRKPEARTGTETDTCTACAGTLILEFAALSRFTGATIFEEYARKALDFLWEKRQRSSNLVGVTINIHTGDWVRKDSGVGAGIDSYYEYLLKAYVLLGDDSFLERFNTHYDAIMRYISQPPLLLDVHIHKPMLNARTWMDALLAFFPGLQVLKGDIRPAIETHEMLYQVIKKHNFLPEAFTTDFRVHWAQHPLRPEFAESTYFLYKATGDPYYLEVGKTLIENLNKYARVPCGFAAMKDVRTGSHEDRMDSFFLAEMFKYLYLLFADKEDIIFDIEDYIFTTEAHLLPLWLSTTNQSISKKNTTSEYTELDDSNFDWTCPNTQILFPNDPLYAQSIREPLKNVVDKSCPRGIIRVEESFRSGAKPPLRARDFMATNPEHLEILKKMGVSLIHLKDGRVQLVQHAIQAASSIDAEDGLRFMQEMIELSSQQQKEQQLPPRAVQIVSHPFFGRVVLTAGPAQFGLDLSKHKETRGFVASSKPSNGCSELTNPEAVMGKIALIQRGQCMFAEKARNIQNAGAIGGIVIDDNEGSSSDTAPLFQMAGDGKDTDDIKIPMLFLFSKEGSIILDAIREYEEVEVLLSDKAKDRDPEMENEEQPSSENDSQNQSGEQISSSSQEVDLVDQESSEENSLNSHPESLSLADMDNAASISPSEQTSNPTENHETTNLNGECTDLDNQLQEQSETEEDSNPNVSWGKKVQPIDSILADWNEDIEAFEMMEKDEL
binds: [1] | [2] | [3] | [4] | [5]
